The supplement of paper PMC11006884
Only a part is listed here, and it is no random draw. This is a noisy data set.

The chains behind the UniProt entries cited, without tags or fusion partners. Where a name states a change or a piece, a line headed by the entry shows the natural chain unless it says otherwise.
UniProt P52306: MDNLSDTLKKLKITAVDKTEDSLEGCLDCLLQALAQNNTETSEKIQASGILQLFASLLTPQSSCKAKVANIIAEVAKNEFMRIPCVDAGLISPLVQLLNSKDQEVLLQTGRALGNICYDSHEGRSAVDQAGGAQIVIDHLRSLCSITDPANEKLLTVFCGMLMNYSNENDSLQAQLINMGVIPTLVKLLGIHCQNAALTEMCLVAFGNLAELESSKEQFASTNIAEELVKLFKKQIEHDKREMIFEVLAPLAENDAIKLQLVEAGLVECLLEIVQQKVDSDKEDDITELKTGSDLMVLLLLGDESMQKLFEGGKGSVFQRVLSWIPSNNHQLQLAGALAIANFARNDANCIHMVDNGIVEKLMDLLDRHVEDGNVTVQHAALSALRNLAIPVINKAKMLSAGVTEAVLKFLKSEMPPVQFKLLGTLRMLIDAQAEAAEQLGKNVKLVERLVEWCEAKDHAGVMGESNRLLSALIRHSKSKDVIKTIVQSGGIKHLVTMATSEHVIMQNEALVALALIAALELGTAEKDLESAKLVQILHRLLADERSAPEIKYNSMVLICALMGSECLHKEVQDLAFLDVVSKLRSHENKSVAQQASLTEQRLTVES
UniProt P60981: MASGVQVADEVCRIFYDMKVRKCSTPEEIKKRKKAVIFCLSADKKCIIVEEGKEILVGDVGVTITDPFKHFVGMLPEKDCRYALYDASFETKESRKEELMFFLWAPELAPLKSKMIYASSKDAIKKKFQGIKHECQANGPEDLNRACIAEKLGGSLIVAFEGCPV
UniProt P53384: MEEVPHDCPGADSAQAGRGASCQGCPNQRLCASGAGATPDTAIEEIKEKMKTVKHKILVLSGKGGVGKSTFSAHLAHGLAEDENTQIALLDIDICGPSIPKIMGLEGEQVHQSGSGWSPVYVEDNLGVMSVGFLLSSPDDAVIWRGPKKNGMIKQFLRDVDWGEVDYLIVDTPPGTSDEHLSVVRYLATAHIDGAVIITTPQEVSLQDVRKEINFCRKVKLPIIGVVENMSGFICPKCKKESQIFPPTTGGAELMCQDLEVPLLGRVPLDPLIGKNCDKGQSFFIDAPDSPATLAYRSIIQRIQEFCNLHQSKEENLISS
UniProt P60891: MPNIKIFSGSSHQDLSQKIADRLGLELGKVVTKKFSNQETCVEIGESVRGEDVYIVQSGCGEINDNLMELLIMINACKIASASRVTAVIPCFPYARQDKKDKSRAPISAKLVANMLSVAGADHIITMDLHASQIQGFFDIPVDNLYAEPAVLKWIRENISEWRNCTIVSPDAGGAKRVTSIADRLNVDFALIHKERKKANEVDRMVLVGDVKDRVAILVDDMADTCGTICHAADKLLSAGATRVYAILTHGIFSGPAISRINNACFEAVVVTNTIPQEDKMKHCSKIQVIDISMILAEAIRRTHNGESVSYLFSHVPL
UniProt P55072, whole entry, looked up: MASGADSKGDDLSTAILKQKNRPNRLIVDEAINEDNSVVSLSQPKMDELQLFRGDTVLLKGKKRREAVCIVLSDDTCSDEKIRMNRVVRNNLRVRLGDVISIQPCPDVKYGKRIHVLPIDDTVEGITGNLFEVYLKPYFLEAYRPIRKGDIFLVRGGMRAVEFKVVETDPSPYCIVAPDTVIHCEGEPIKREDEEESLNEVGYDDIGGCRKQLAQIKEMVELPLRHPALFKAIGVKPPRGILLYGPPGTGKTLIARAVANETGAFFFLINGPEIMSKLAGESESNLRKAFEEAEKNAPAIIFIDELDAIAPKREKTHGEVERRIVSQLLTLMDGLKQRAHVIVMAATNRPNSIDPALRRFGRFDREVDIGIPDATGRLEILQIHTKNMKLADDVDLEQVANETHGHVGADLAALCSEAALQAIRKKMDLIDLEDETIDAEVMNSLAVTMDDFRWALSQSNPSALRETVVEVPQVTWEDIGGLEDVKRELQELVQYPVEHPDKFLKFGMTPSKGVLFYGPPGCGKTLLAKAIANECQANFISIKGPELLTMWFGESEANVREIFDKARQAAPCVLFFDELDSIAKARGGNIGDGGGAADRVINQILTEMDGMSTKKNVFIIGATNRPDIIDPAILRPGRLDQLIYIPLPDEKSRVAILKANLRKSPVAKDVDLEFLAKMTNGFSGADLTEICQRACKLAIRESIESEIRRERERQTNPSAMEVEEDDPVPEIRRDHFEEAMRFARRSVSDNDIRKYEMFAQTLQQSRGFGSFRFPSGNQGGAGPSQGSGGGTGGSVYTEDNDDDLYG
UniProt P52789: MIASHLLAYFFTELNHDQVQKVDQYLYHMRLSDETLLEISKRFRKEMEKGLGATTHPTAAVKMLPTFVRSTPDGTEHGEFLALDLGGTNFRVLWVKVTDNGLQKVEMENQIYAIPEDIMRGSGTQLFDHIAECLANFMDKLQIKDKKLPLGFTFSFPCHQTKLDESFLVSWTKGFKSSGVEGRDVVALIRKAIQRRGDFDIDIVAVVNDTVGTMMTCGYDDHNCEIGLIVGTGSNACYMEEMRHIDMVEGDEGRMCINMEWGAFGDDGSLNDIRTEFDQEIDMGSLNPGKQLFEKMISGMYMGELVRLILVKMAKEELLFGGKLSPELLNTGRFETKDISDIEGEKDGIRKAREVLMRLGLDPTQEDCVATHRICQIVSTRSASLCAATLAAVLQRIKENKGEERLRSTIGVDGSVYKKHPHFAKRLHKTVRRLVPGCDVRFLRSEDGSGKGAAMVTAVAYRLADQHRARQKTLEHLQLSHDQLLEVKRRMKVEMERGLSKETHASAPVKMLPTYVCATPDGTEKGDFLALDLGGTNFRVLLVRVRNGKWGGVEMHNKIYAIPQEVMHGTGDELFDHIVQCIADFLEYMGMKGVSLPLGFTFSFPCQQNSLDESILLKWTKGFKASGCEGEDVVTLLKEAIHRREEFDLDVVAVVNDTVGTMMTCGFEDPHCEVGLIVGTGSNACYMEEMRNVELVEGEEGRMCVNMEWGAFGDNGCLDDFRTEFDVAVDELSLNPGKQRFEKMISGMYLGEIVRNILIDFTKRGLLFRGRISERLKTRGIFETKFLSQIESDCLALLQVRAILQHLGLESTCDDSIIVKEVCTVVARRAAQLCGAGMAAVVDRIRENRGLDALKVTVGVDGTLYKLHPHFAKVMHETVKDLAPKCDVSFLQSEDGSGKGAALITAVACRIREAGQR
UniProt P54886: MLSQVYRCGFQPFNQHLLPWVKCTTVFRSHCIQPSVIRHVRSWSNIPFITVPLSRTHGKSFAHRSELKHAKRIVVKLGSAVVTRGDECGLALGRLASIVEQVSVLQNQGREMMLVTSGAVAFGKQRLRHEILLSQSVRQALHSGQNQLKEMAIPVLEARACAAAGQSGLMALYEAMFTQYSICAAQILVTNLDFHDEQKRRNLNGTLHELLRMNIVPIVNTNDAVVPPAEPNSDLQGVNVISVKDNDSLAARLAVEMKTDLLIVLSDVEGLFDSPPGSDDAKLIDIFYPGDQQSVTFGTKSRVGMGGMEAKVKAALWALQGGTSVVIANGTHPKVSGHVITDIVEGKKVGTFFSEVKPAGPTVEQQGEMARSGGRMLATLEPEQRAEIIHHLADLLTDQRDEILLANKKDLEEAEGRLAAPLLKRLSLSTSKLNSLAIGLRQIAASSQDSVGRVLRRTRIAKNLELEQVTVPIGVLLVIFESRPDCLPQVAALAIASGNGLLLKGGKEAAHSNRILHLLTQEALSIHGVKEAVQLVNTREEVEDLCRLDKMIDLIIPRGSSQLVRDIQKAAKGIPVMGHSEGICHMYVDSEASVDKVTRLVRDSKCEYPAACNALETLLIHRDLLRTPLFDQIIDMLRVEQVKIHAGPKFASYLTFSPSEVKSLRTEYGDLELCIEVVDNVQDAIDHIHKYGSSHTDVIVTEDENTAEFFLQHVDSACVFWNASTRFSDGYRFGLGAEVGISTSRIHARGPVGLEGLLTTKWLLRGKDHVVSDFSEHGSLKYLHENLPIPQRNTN
UniProt P55265: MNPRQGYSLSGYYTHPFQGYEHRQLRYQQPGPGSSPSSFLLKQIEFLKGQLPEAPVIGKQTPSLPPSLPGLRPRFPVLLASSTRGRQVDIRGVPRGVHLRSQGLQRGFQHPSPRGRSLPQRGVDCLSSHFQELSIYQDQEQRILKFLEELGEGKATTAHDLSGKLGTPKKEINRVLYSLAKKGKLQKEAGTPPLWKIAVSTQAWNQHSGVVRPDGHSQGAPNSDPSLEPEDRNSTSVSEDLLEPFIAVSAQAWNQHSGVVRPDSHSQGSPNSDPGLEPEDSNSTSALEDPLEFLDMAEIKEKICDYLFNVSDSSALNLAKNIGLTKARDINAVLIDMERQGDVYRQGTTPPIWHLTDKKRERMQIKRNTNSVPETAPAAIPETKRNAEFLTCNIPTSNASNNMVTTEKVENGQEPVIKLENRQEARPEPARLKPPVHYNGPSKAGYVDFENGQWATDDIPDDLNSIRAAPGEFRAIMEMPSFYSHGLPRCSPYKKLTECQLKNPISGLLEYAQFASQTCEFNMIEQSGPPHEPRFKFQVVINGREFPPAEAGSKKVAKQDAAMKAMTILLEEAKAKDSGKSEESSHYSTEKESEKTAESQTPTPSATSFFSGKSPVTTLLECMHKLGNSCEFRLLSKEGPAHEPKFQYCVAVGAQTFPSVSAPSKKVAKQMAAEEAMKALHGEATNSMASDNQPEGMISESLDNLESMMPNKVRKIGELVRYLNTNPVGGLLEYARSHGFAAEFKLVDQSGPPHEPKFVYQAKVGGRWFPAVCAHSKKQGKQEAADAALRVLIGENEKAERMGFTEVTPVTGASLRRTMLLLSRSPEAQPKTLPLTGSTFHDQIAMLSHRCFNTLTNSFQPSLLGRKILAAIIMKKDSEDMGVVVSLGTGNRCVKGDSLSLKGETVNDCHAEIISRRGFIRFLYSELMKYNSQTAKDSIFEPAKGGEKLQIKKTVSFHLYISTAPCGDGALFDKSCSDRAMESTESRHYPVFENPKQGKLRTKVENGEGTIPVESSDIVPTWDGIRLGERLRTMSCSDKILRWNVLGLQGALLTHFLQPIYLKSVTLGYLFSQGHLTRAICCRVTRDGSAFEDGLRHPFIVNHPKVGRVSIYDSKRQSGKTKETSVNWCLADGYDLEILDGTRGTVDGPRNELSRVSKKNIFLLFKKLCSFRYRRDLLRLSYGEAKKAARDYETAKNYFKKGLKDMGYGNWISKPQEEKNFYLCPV
UniProt P52429: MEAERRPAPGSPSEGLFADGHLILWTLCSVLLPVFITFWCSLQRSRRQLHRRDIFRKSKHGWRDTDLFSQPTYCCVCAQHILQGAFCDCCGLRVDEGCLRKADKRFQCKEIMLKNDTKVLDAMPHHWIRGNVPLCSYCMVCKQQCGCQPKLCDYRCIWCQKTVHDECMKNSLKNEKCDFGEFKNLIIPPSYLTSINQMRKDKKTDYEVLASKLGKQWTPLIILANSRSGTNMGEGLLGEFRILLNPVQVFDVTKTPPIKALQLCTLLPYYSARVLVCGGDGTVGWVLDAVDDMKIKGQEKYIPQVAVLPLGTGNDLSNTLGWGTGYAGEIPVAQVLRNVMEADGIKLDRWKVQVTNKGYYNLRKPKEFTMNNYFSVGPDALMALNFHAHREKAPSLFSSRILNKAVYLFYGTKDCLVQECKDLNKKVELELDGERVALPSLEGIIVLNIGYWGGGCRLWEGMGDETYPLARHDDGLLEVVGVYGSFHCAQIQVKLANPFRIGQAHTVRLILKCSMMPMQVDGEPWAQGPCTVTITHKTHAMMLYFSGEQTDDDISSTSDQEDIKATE
UniProt P53701: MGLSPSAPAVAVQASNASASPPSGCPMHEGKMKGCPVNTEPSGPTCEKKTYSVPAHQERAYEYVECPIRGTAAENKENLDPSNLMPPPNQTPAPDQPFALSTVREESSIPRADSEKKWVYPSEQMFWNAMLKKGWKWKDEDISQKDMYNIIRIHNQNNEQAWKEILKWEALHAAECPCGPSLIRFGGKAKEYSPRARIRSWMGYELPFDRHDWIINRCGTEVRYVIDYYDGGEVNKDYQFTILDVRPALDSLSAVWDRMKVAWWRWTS
UniProt P52594: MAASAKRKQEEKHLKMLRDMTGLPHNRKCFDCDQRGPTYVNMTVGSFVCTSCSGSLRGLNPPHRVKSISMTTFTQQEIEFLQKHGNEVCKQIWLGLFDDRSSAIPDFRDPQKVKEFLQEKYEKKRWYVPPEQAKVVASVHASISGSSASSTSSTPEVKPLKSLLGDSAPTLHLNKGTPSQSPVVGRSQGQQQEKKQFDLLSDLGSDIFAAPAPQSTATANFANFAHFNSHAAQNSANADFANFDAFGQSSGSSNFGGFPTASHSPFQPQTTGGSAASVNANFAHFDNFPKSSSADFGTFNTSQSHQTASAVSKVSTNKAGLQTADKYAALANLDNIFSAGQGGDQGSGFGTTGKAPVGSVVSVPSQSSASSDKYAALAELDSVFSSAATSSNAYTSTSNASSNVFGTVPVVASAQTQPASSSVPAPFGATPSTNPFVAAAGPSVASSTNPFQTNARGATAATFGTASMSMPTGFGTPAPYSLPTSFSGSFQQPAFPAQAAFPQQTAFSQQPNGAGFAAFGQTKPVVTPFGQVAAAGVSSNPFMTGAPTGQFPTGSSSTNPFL

compound: COC(=O)/C=C/c1ccccc1 [methyl cinnamate]; test: log2 ratio of iodoacetamide-alkyne labeling of the cysteine site, DMSO over compound (competition); higher = stronger covalent engagement of the cysteine by the compound, active = 1 or more; conditions: 500 µM; treatment time 1 h; system: HEK293T cell lysate
Method in brief: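 Electrophile (500 µM) or vehicle was added to HEK293T lysate (2 mg/mL) for 1 h at ambient temperature before iodoacetamide alkyne labelling (1 h) and click coupling to sCIP-TMT reagents. After pooling, overnight trypsin digestion at 37 °C, streptavidin enrichment and acid elution, peptides were measured by Orbitrap Eclipse LC-MS/MS with FAIMS and quantified in FragPipe. Each cysteine's log2 competition ratio compares mean control-channel with mean compound-channel reporter intensity, control over compound. Data came from duplicate channels across three replicates, excluding cysteines quantified in only one replicate.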

log2 ratio of iodoacetamide-alkyne labeling, inactive:
RBM5 C766 (UniProt P52756) 0.298, RAP1GDS1 C85 (UniProt P52306) -0.174, CASP6 C68 (UniProt P55212) 0.258, DSTN C135 (UniProt P60981) 0.213, HIRA C1007 (UniProt P54198) 0.272, NUP98 C1068 (UniProt P52948) 0.243, PGD C422 (UniProt P52209) -0.147, NUBP1 C256 (UniProt P53384) 0.214, PGD C289 (UniProt P52209) 0.183, UniProt P55769_C93 0.229, COPA C453 (UniProt P53621) 0.0996, UniProt P60891_C41 0.294, NUBP1 C277 (UniProt P53384) 0.192, UniProt P62258_C97 0.0937, UniProt P61978_C184 0.0704, AK2 C232 (UniProt P54819) -0.441, CASP7 C116 (UniProt P55210) 0.0755, UniProt P55072_C105 0.0157, UniProt P55769_C30 0.292, COPB1 C616 (UniProt P53618) 0.0566, HK2 C794 (UniProt P52789) 0.184, KIF11 C773 (UniProt P52732) 0.356, BLM C607 (UniProt P54132) 0.144, BLM C704 (UniProt P54132) 0.139, HADHB C458 (UniProt P55084) 0.0535, ALDH18A1 C606 (UniProt P54886) 0.0633, ADAR C392 (UniProt P55265) 0.174, RARS C34 (UniProt P54136) 0.313, ACTR3 C12 (UniProt P61158) 0.375, UniProt P60709_C285 0.0497, UniProt P61160_C221 0.62, DGKE C135 (UniProt P52429) 0.107, THOP1 C7 (UniProt P52888) 0.552, HCCS C178 (UniProt P53701) 0.193, DSTN C147 (UniProt P60981) -0.178, AGFG1 C89 (UniProt P52594) -0.0165, UniProt P60891_C265 -0.08
